Results are given in words; binding and its absence hold for the method and conditions named. Binding seen in cells or lysates may run through a third protein. Some entries that bind do so weakly or less than the wild type. For part of these data: Where a sequence is shown, tags or fusion partners need not be part of it.
Assays:
full length VLDLR-myc = full length VLDLR-myc (UniProt P98155); experiment: co-IP; COS7 cells co-transfected with VLDLR and FE65 constructs; cell lysates (100-200 ug) immunoprecipitated by the tag or 5F3 (anti-HA, anti-myc, 5F3, anti-GFP) and the precipitate probed for the other protein's tag
[1] = target: full length VLDLR (HA-tagged on the C terminal) (UniProt P98155); experiment: as above
[2] = target: VLDLR, endogenous in mouse brain (mouse (endogenous in brain)) (UniProt P98156); experiment: co-IP; mouse whole brain lysates (100 ug), IP buffer 50 mM Tris-HCl pH 8.0, 0.15 M NaCl, 1% Nonidet P-40, overnight at 4°C with antibody (5F3, anti-FE65 or C1/6.1; IgG as control) and protein G-Sepharose; also lysates of 13 month old FE65 knockout mice against wild-type littermates (APP band with VLDLR decreased)

Protein sequences, listed by entry. Tags and fused reporters are not part of them. Residues count along the entry.
UniProt P98156, residues 28-873: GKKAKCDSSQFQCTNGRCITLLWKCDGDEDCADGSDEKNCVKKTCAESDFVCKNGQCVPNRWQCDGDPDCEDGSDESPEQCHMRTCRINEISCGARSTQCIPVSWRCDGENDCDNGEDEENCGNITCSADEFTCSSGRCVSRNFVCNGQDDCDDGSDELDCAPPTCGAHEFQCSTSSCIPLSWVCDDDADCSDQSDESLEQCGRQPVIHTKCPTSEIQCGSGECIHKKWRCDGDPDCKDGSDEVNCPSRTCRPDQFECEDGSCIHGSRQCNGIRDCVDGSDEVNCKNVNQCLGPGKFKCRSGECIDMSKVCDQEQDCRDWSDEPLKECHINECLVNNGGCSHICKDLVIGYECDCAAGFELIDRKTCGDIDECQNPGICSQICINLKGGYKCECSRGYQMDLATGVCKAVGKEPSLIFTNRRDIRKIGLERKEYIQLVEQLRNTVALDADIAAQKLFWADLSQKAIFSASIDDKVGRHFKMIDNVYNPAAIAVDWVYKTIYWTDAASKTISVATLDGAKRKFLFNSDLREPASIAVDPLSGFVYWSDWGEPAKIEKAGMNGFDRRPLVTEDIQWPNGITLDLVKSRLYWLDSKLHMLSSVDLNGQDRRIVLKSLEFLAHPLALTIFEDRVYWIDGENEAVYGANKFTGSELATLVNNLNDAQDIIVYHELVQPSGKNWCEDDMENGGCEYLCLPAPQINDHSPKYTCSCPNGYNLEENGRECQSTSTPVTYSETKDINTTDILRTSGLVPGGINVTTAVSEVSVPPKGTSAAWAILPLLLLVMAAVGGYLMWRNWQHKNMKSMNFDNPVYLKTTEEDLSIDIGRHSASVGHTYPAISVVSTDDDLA

B1: full length FE65-GFP (protein, UniProt O00213 1-710)
chain: MSVPSSLSQSAINANSHGGPALSLPLPLHAAHNQLLNAKLQATAVGPKDLRSAMGEGGGPEPGPANAKWLKEGQNQLRRAATAHRDQNRNVTLTLAEEASQEPEMAPLGPKGLIHLYSELELSAHNAANRGLRGPGLIISTQEQGPDEGEEKAAGEAEEEEEDDDDEEEEEDLSSPPGLPEPLESVEAPPRPQALTDGPREHSKSASLLFGMRNSAASDEDSSWATLSQGSPSYGSPEDTDSFWNPNAFETDSDLPAGWMRVQDTSGTYYWHIPTGTTQWEPPGRASPSQGSSPQEESQLTWTGFAHGEGFEDGEFWKDEPSDEAPMELGLKEPEEGTLTFPAQSLSPEPLPQEEEKLPPRNTNPGIKCFAVRSLGWVEMTEEELAPGRSSVAVNNCIRQLSYHKNNLHDPMSGGWGEGKDLLLQLEDETLKLVEPQSQALLHAQPIISIRVWGVGRDSGRERDFAYVARDKLTQMLKCHVFRCEAPAKNIATSLHEICSKIMAERRNARCLVNGLSLDHSKLVDVPFQVEFPAPKNELVQKFQVYYLGNVPVAKPVGVDVINGALESVLSSSSREQWTPSHVSVAPATLTILHQQTEAVLGECRVRFLSFLAVGRDVHTFAFIMAAGPASFCCHMFWCEPNAASLSEAVQAACMLRYQKCLDARSQASTSCLPAPPAESVARRVGWTVRRGVQSLWGSLKPKRLGAHTP
How did the binding (full length VLDLR-myc) turn out when B1 was run?
Its binding is “binds”.

B2: full length FE65 (myc-tagged on the C terminal) (protein, UniProt O00213 1-710)
chain: B1 chain
B2 was tested. Which binding [1] did it give?
The binding was “binds”.

B3: FE65, endogenous in mouse brain (protein, UniProt Q9QXJ1 1-710)
chain: MSVPSSLSQSAINANSHGGPALSFPLPLHAAHNQLLNAKLQATAVVPKDLRSAMGEGSVPEPGPANAKWLKEGQNQLRRAATAHRDQNRNVTLTLAEEASQEAETAPLGPKGLMHLYSELELSAHNAANRGLHGSALIINTQEQGPDEGEEKAAGEAEEDDEDEEEEEEEEDLSSPPGLPEPLENVEVPSGPQALTDGPREHSKSASLLFGMRNSAASDEDSSWATLSQGSPSYGSPEDTDSFWNPNAFETDSDLPAGWMRVQDTSGTYYWHIPTGTTQWEPPGRASPSQGSSPQEESQLTWTGFAHQEGFEEGEFWKDEPSEEAPMELGLKDPEEATLSFPAQSLSPEPVPQEEEKLSQRNANPGIKCFAVRSLGWVEMTEEELAPGRSSVAVNNCIRQLSYHKNNLHDPMAGGWGEGKDLLLQLEDETLKLVEPQNQTLLHAQPIVSIRVWGVGRDSGSNRDFAYVARDKLTQMLKCHVFRCEAPAKNIATSLHEICSKIMSERRNARCLVNGLSLDHSKLVDVPFQVEFPAPKNELVQKFQVYYLGNVPVAKPVGVDVINGALESVLSSSSREQWTPSHVSVAPATLTILHQQTEAVLGECRVRFLSFLAVGRDVHTFAFIMAAGPASFCCHMFWCEPNAASLSEAVQAACMLRYQKCLDARSQTSTSCLPAPPAESVARRVGWTVRRGVQSLWGSLKPKRLGSQTP
With B3 as the binder, how does the binding [2] read?
The binding was “binds”.
